Measurements from PubChem BioAssay AID2685 (National Center for Advancing Translational Sciences (NCATS), 2010).
The list shows a part of the results. The main result of the screen is listed elsewhere. These columns were measured beside it and carry no call. Compounds called inactive in the main read-out are mostly missing here. Words in brackets tell the shape of the fitted curve; partial curves, single points and poor fits give uncertain potencies.

Assay: qHTS Assay for Lipid Storage Modulators in Drosophila S3 Cells;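 as to cell number change: cells counted by Cell Tracker Red CMTPX staining in the red channel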
Conditions: BODIPY lipid droplet fluorescence, 18-24 h; for cell number change: measured here: cell count max response, cells fed with added oleic acid
Method in brief: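 Drosophila S3 cells got compounds at several concentrations plus oleic acid (400 uM solution). Laser-scanning cytometry with 488 nm excitation read lipid droplets at 500-530 nm and cells at 575-640 nm. Percent activity was relative to 20 uM Triacsin C.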

[1] = measured here: lipid fluorescence (Fed channel) AC50, cells fed with added oleic acid
[2] = measured here: cell number channel AC50, cells fed with added oleic acid

SMILES | cell number change | AC50 [1] | AC50 [2]
CC1CCCC(NC(=O)C2c3ccccc3C(=O)N2Cc2cccs2)C1C (centres undefined) | 9.21% | 18.4 µM [falling, single point] | 
O=C(COc1ccc(/C=N/NC(=O)c2ccncc2)cc1)Nc1cccc([N+](=O)[O-])c1 | 8.7% |  | 
CN(Cc1ccc(Cl)cc1Cl)C(=O)CCNC(=O)c1ccco1 | 13.9% | 0.411 µM [rising, full curve, poor fit] | 0.13 µM [rising, full curve]
COC(=O)c1ccc(C2C(C(C)=O)=C(C)Nc3ncnn32)cc1 (centres undefined) | 2.97% |  | 
Cc1nc([N+](=O)[O-])c(Sc2nc3ccccc3[nH]2)n1Cc1ccccc1 | -14.6% | 18.4 µM [falling, single point] | 
O=C(N/N=C/c1ccccc1O)C(=O)Nc1ccccn1 | 5.81% |  | 
CC1=NN(C(N)=S)C(=O)C1N=Nc1cccc2ccccc12 (centres undefined) | -25.8% | 32.6 µM [falling, single point] | 
O=[N+]([O-])c1ccc(N=Nc2c(Cl)cc(O)cc2Cl)cc1 | -66.8% | 4.61 µM [falling, full curve] | 5.8 µM [falling, full curve]
O=C(NC(Nc1ccc(F)cc1)(C(F)(F)F)C(F)(F)F)c1cccnc1 | -43% | 9.2 µM [falling, single point] | 1.84 µM [falling, partial curve]
COc1ccc(C(CNC(=O)CN2C(=O)NC3(CCCC3)C2=O)N(C)C)cc1 (centres undefined) | 12.3% | 20.6 µM [rising, single point] | 
CCS(=O)(=O)c1nc(S(=O)(=O)c2ccc(C)cc2)c(N2CCC3(CC2)OCCO3)s1 | -12.9% | 0.82 µM [rising, full curve] | 
COc1cc(SC)ccc1C(=O)NCCc1ccccc1 | 27.5% | 29.1 µM [rising, single point] | 
COc1cc(N=c2ssnc2Cl)cc(OC)c1OC | -36.5% | 25.9 µM [falling, partial curve, poor fit] | 
Cn1c(N)c(C(=O)COC(=O)[C@H](Cc2ccccc2)N2C(=O)c3ccccc3C2=O)c(=O)n(C)c1=O | 22.3% | 23.1 µM [rising, partial curve, poor fit] | 
S=C(NCC1CCCO1)n1nnc2ccccc21 (centres undefined) | 21.7% | 29.1 µM [rising, single point] | 
COc1cc2[nH]c(=O)n(CCC(=O)N3CCN(c4cccc(C)c4C)CC3)c(=O)c2cc1OC | 14.8% | 29.1 µM [rising, single point] | 
CCCn1c(N)c(N(CCOC)C(=O)/C=C/c2cccc(Cl)c2)c(=O)[nH]c1=O | -13.1% |  | 3.66 µM [falling, partial curve]
Cc1ccccc1NC(=S)NC(NC(=O)C(C)(C)C)C(Cl)(Cl)Cl (centres undefined) | -2.73% | 0.731 µM [falling, full curve] | 
CC(C)CC(NC(N)=O)C(=O)Nc1ccc2c(c1)OCO2 (centres undefined) | -9.63% |  | 
Nc1nc(C(=O)N2CCOCC2)nn1S(=O)(=O)c1ccccc1 | 5.54% | 0.206 µM [falling, full curve] | 

SMILES | cell number change | AC50 [1] | AC50 [2]
CC(=O)CCC1C2C(O)C(C(C)C)C(OC(=O)/C=C/c3ccccc3)CC12C (centres undefined) | 8.2% | 0.731 µM [rising, full curve, poor fit] | 
Cc1ccc(-n2ncc3c(NCc4ccccc4)ncnc32)cc1 | 0.963% | 6.51 µM [rising, single point] | 
COc1ccc(N(CC(=O)NC2CCCCC2)C(=O)CCC(=O)Nc2nc(C)cs2)cc1OC | -6.96% |  | 
COc1ccc(C(=O)CC(=O)c2ccccc2O)cc1OC | 36.8% | 1.84 µM [falling, partial curve] | 32.6 µM [rising, single point]
C/C(=N/NC(=O)c1cn(-c2cccc(C)n2)cn1)c1ccc(C)cc1 | 12.1% | 5.8 µM [rising, single point] | 
O=C(NCCSc1ccccc1)c1cccnc1 | 9.33% | 6.51 µM [falling, single point] | 
O=C(COC(=O)c1ccco1)NCc1ccc(Cl)cc1 | -19.5% | 20.6 µM [falling, single point] | 
CCCOc1ccc(CNC(=S)Nc2ccccc2)cc1Cl | -55.1% | 20.6 µM [falling, single point] | 25.9 µM [falling, single point]
O=C(c1cccc(S(=O)(=O)N2CCCCCC2)c1)N1CCN(c2ccccc2)CC1 | 4.78% | 0.092 µM [falling, full curve, poor fit] | 0.651 µM [rising, single point]
CCOC(=O)c1c(-c2ccc(C)cc2)csc1NC(=O)CCN1CC(C)OC(C)C1 (centres undefined) | 1.1% | 2.59 µM [rising, partial curve] | 2.06 µM [rising, partial curve]
CC(C)(C)NC(=O)COC(=O)c1ccccc1Nc1ccc(SC(F)F)cc1 | 4.64% |  | 
S=C1NC2CCCCC2N1 (centres undefined) | -87% | 18.4 µM [falling, partial curve] | 29.1 µM [falling, single point]
Cc1ccccc1NC(=O)C1CC(Cl)=CCC1C(=O)O (centres undefined) | -0.977% | 4.11 µM [rising, full curve, poor fit] | 
Cc1ccc(S(=O)(=O)N/N=C\c2ccc3c(c2)OCO3)cc1C | 20.5% | 20.6 µM [rising, single point] | 
Cn1nc(-c2ccccc2F)c2cc(C(=O)Nc3ccc4c(c3)OCCO4)sc21 | -5.34% | 16.4 µM [rising, single point] | 
CCOC(=O)c1c(NC(=O)COC(=O)c2nc(Cl)ccc2Cl)sc(C(=O)N(C)C)c1C |  | 6.51 µM [rising, single point] | 2.91 µM [rising, single point]
COCCNc1nc(N)c([N+](=O)[O-])c(NCc2ccccc2)n1 | 47.7% |  | 29.1 µM [rising, single point]
COc1cc(CNC2CCCCC2OC)cc(OC)c1 (centres undefined) | -6.96% |  | 
Clc1ccc(OCCCCCN2CCOCC2)cc1 | -8.66% | 0.13 µM [falling, full curve, poor fit] | 
